{"source": "PubChem BioAssay AID493246 (Drosophila RNAi Screening Center, 2011)", "aim": "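Genome-wide search for dsRNAs that reduce cell number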 (primary screen)", "cell system": "Drosophila Kc and S2R+ cells", "reagents": "long dsRNA against Drosophila genes", "read-out": "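Cell number per well after knock-down, printed as raw plate values; calls were based on per-plate z-scores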", "direction": "Kc cell number and S2R+ cell number: higher = more cells remaining", "rule for the call": "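Counted as a hit if cell number falls by a z-score of at least 3 within its plate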", "note": "The deposit covers about 21,000 reagents; below is a random part of those with a known target gene and a result. Of all reagents, 429 (2%) got an active call. 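Values are raw and not normalised between plates; calls rest on per-plate z-scores that were not deposited.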 Not stated in the record: the amount of reagent, the time to read-out."}
{"gene": "heph", "PubChem SID": "SID104193874", "Kc cell number, rep 1": 1.50e6, "Kc cell number, rep 2": 1.81e6, "S2R+ cell number, rep 1": 1.04e6, "S2R+ cell number, rep 2": 1.15e6, "outcome": "inactive"}
{"gene": "heph", "PubChem SID": "SID104193877", "Kc cell number, rep 1": 1.60e6, "Kc cell number, rep 2": 1.65e6, "S2R+ cell number, rep 1": 1.06e6, "S2R+ cell number, rep 2": 1.08e6, "outcome": "inactive"}
{"gene": "heph", "PubChem SID": "SID104195228", "Kc cell number, rep 1": 1.47e6, "Kc cell number, rep 2": 1.43e6, "S2R+ cell number, rep 1": 9.27e5, "S2R+ cell number, rep 2": 8.95e5, "outcome": "inactive"}
{"gene": "heph", "PubChem SID": "SID104196575", "Kc cell number, rep 1": 1.47e6, "Kc cell number, rep 2": 1.47e6, "S2R+ cell number, rep 1": 9.63e5, "S2R+ cell number, rep 2": 1.04e6, "outcome": "inactive"}
{"gene": "RpL32", "PubChem SID": "SID104196627", "Kc cell number, rep 1": 8.75e5, "Kc cell number, rep 2": 8.54e5, "S2R+ cell number, rep 1": 5.82e5, "S2R+ cell number, rep 2": 7.46e5, "outcome": "active"}
{"gene": "Fnta", "PubChem SID": "SID104180349", "Kc cell number, rep 1": 1.26e6, "Kc cell number, rep 2": 1.36e6, "S2R+ cell number, rep 1": 7.73e5, "S2R+ cell number, rep 2": 7.63e5, "outcome": "inactive"}
{"gene": "CG2059", "PubChem SID": "SID104197995", "Kc cell number, rep 1": 1.53e6, "Kc cell number, rep 2": 1.55e6, "S2R+ cell number, rep 1": 1.08e6, "S2R+ cell number, rep 2": 1.20e6, "outcome": "inactive"}
{"gene": "CG4733", "PubChem SID": "SID104195426", "Kc cell number, rep 1": 1.17e6, "Kc cell number, rep 2": 1.27e6, "S2R+ cell number, rep 1": 1.12e6, "S2R+ cell number, rep 2": 1.20e6, "outcome": "inactive"}
{"gene": "CG14968", "PubChem SID": "SID104188219", "Kc cell number, rep 1": 1.61e6, "Kc cell number, rep 2": 1.45e6, "S2R+ cell number, rep 1": 1.07e6, "S2R+ cell number, rep 2": 1.35e6, "outcome": "inactive"}
{"gene": "CG8260", "PubChem SID": "SID104199890", "Kc cell number, rep 1": 1.52e6, "Kc cell number, rep 2": 1.50e6, "S2R+ cell number, rep 1": 1.07e6, "S2R+ cell number, rep 2": 1.16e6, "outcome": "inactive"}
{"gene": "CG6454", "PubChem SID": "SID104195836", "Kc cell number, rep 1": 1.55e6, "Kc cell number, rep 2": 1.55e6, "S2R+ cell number, rep 1": 1.17e6, "S2R+ cell number, rep 2": 1.18e6, "outcome": "inactive"}
{"gene": "CG13144", "PubChem SID": "SID104182033", "Kc cell number, rep 1": 1.64e6, "Kc cell number, rep 2": 1.61e6, "S2R+ cell number, rep 1": 1.23e6, "S2R+ cell number, rep 2": 1.43e6, "outcome": "inactive"}
{"gene": "Gr66a", "PubChem SID": "SID104190575", "Kc cell number, rep 1": 1.58e6, "Kc cell number, rep 2": 1.44e6, "S2R+ cell number, rep 1": 1.15e6, "S2R+ cell number, rep 2": 1.26e6, "outcome": "inactive"}
{"gene": "C3G", "PubChem SID": "SID104197537", "Kc cell number, rep 1": 1.78e6, "Kc cell number, rep 2": 1.71e6, "S2R+ cell number, rep 1": 1.06e6, "S2R+ cell number, rep 2": 1.16e6, "outcome": "inactive"}
{"gene": "C3G", "PubChem SID": "SID104197721", "Kc cell number, rep 1": 1.67e6, "Kc cell number, rep 2": 1.72e6, "S2R+ cell number, rep 1": 1.09e6, "S2R+ cell number, rep 2": 1.28e6, "outcome": "inactive"}
{"gene": "Desat1", "PubChem SID": "SID104196460", "Kc cell number, rep 1": 5.58e5, "Kc cell number, rep 2": 5.92e5, "S2R+ cell number, rep 1": 1.09e6, "S2R+ cell number, rep 2": 1.20e6, "outcome": "active"}
{"gene": "Cpr47Ed", "PubChem SID": "SID104187123", "Kc cell number, rep 1": 1.51e6, "Kc cell number, rep 2": 1.67e6, "S2R+ cell number, rep 1": 1.40e6, "S2R+ cell number, rep 2": 1.53e6, "outcome": "inactive"}
{"gene": "Trhn", "PubChem SID": "SID104188413", "Kc cell number, rep 1": 1.36e6, "Kc cell number, rep 2": 1.38e6, "S2R+ cell number, rep 1": 1.17e6, "S2R+ cell number, rep 2": 1.08e6, "outcome": "inactive"}
{"gene": "beat-VII", "PubChem SID": "SID104193572", "Kc cell number, rep 1": 1.30e6, "Kc cell number, rep 2": 1.53e6, "S2R+ cell number, rep 1": 1.20e6, "S2R+ cell number, rep 2": 9.24e5, "outcome": "inactive"}
{"gene": "beat-VII", "PubChem SID": "SID104194535", "Kc cell number, rep 1": 1.44e6, "Kc cell number, rep 2": 1.52e6, "S2R+ cell number, rep 1": 1.04e6, "S2R+ cell number, rep 2": 1.13e6, "outcome": "inactive"}
{"gene": "beat-VII", "PubChem SID": "SID104194536", "Kc cell number, rep 1": 1.55e6, "Kc cell number, rep 2": 1.57e6, "S2R+ cell number, rep 1": 1.01e6, "S2R+ cell number, rep 2": 1.14e6, "outcome": "inactive"}
{"gene": "CG7798", "PubChem SID": "SID104186839", "Kc cell number, rep 1": 1.58e6, "Kc cell number, rep 2": 1.61e6, "S2R+ cell number, rep 1": 1.20e6, "S2R+ cell number, rep 2": 1.30e6, "outcome": "inactive"}
{"gene": "CG14406", "PubChem SID": "SID104199384", "Kc cell number, rep 1": 1.49e6, "Kc cell number, rep 2": 1.51e6, "S2R+ cell number, rep 1": 1.14e6, "S2R+ cell number, rep 2": 1.27e6, "outcome": "inactive"}
{"gene": "CG7632", "PubChem SID": "SID104191634", "Kc cell number, rep 1": 1.51e6, "Kc cell number, rep 2": 1.57e6, "S2R+ cell number, rep 1": 1.23e6, "S2R+ cell number, rep 2": 1.35e6, "outcome": "inactive"}
{"gene": "ND-39", "PubChem SID": "SID104191583", "Kc cell number, rep 1": 1.40e6, "Kc cell number, rep 2": 1.45e6, "S2R+ cell number, rep 1": 9.23e5, "S2R+ cell number, rep 2": 1.02e6, "outcome": "inactive"}
{"gene": "mRpL16", "PubChem SID": "SID104198342", "Kc cell number, rep 1": 5.47e5, "S2R+ cell number, rep 1": 7.65e5, "outcome": "inactive"}
{"gene": "MAN1", "PubChem SID": "SID104184134", "Kc cell number, rep 1": 1.31e6, "Kc cell number, rep 2": 1.39e6, "S2R+ cell number, rep 1": 1.09e6, "S2R+ cell number, rep 2": 1.17e6, "outcome": "inactive"}

Entries listed so far whose target name starts with B or b (3):
{"gene": "beat-VII", "PubChem SID": "SID104193572", "Kc cell number, rep 1": 1.30e6, "Kc cell number, rep 2": 1.53e6, "S2R+ cell number, rep 1": 1.20e6, "S2R+ cell number, rep 2": 9.24e5, "outcome": "inactive"}
{"gene": "beat-VII", "PubChem SID": "SID104194535", "Kc cell number, rep 1": 1.44e6, "Kc cell number, rep 2": 1.52e6, "S2R+ cell number, rep 1": 1.04e6, "S2R+ cell number, rep 2": 1.13e6, "outcome": "inactive"}
{"gene": "beat-VII", "PubChem SID": "SID104194536", "Kc cell number, rep 1": 1.55e6, "Kc cell number, rep 2": 1.57e6, "S2R+ cell number, rep 1": 1.01e6, "S2R+ cell number, rep 2": 1.14e6, "outcome": "inactive"}
